In all, about 3,000 compounds went through this assay and about 45 (2%) showed an effect of 50% or more. Some of the results follow.
What follows are compounds tested on MOLM1 and UCSD/AML1 (averaged) (assay: cell viability relative to DMSO control (POC); higher = less growth inhibition). Settings: 1 µM; 72 h.
Description: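 Primary viability screen in the 3q26 EVI1-high AML cell lines MOLM1 and UCSD/AML1, compounds at 1 uM for 72 h. ATP CellTiter-Glo read-out given as percent viable over DMSO control (POC), averaged over duplicates. This mapping covers the TimTec NDL-3000 natural derivative library, whose compounds are identified by TimTec catalogue codes (ST...).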
With O=c1oc2cc(O)ccc2cc1-c1ccc(Cl)cc1Cl the cell viability was 108%. With CCOc1ccccc1-c1nc(CSc2nc3c(=O)[nH]c(C)nc3n2C)c(C)o1 the cell viability was 101%. COc1cc(C(=O)Nc2cccnc2)cc(OC)c1OC showed a cell viability of 94.2%. Compound CCOc1cc2c(cc1OCC)C(c1ccc3c(c1)OCO3)NCC2 (configuration not stated) has a cell viability of 98.1%. Compound CCOC(=O)CNC(=O)c1ccc(Cl)c([N+](=O)[O-])c1 has a cell viability of 97.8%. In the case of O=C(NCCCCCCNC(=O)/C(=C\c1ccc2c(c1)OCO2)NC(=O)c1ccccc1)/C(=C\c1ccc2c(c1)OCO2)NC(=O)c1ccccc1, the cell viability is reported as 107%. With CCOC(=O)C(Cc1c[nH]c2ccccc12)NC(=O)c1ccccc1C(F)(F)F (configuration not stated) the cell viability was 93.6%. With O=C(Cn1c(=O)cc(C(=O)N2CCCCC2)c2ccccc21)NCc1ccccc1Cl the cell viability was 90%. Cc1[nH]c2ccccc2c1CCNC(=O)COc1c(F)c(F)cc(F)c1F showed a cell viability of 87.4%. Cc1cccc(C)c1NC(=O)COc1cc(O)c2c(=O)cc(-c3ccccc3)oc2c1 was tested, and the cell viability was 103%. C[C@@H]1C=CC[C@H]2[C@@H]1C(=O)[C@@H]1OC[C@H]2O1 showed a cell viability of 95.6%. Work on COc1ccc(/C=C2\Oc3cc(OC(=O)c4ccc(OC)cc4)ccc3C2=O)cc1 yielded a cell viability of 93.9%. Work on CCSCCN=Cc1c(O)c(O)c(C(C)C)c2cc(C)c(-c3c(C)cc4c(C(C)C)c(O)c(O)c(C=NCCSCC)c4c3O)c(O)c12 yielded a cell viability of 85.6%. For COc1ccc(NC(=O)CSc2nc3ccccc3c(=O)[nH]2)cc1Cl, the cell viability was 104%. With Cc1ccc2[nH]c(=O)cc(CSc3ncc(-c4ccccc4)n3C)c2c1 the cell viability was 84.7%. Work on O=C(O)CC(C(=O)O)n1c(O)c(C2=c3cc(Br)ccc3=NC2=O)sc1=S (configuration not stated) yielded a cell viability of 113%. COc1cc(OC)cc([C@@H]2[C@@H](C(=O)C(C)(C)C)N3c4ccccc4C=C[C@@H]3C2(C#N)C#N)c1 gave a cell viability of 79.7%. In the case of O=C1C(=O)N(CC(=O)N2CCc3ccccc3C2)c2ccccc21, the cell viability is reported as 95.5%. In the case of COc1ccc(-c2nc(NC(C)=O)c3c(=O)oc4ccccc4c3n2)cc1, the cell viability is reported as 97.6%. With COC(=O)CNC(=O)c1ccc(Cl)cc1Cl the cell viability was 109%. In the case of CCOc1cc(C2C(C(=O)OC(C)CC)=C(C)NC3=C2C(=O)CC(c2ccc(Cl)cc2)C3)ccc1O (configuration not stated), the cell viability is reported as 99.9%. Work on COC(=O)C(N)Cc1cnc[nH]1 (configuration not stated) yielded a cell viability of 98.8%. Work on COc1cccc(CNC(=O)CSc2nc3ccccc3c(=O)[nH]2)c1OC yielded a cell viability of 102%. CCc1[nH]nc2c1C(c1cc(OC)c(O)c(OC)c1)C(C#N)=C(N)O2 (configuration not stated) was tested, and the cell viability was 107%. Compound CCCNC(=O)c1cc(=O)n(CC(=O)Nc2ccccc2Cl)c2ccccc12 has a cell viability of 98.4%. Compound COc1ccc(C=O)cc1C has a cell viability of 96%. Work on CC(=O)OC1CCC2(C)C(CCC3(C)C2C(=O)C=C2C4CC(C)(C(=O)Nc5ccccn5)CCC4(C)CCC23C)C1(C)C (configuration not stated) yielded a cell viability of 72.2%.

From the supplement of paper PMC11150407
